# The list shows a part of the results. The calls rarely recur for the same compound in another form.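 In K562 cells expressing nanoluciferase-fused kinases, luminescence was recorded at 4 h intervals between 2 and 18 h, normalized as percent of control with DMSO at 100% and a positive control at 0%. A significant (2 sigma) signal drop marks a time point as decreased. The authors' rule for a hit is not shown and takes in more than the number of time points.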
# The chains behind the UniProt entries cited, without tags or fusion partners. Where a name states a change or a piece, a line headed by the entry shows the natural chain unless it says otherwise.
# UniProt Q9BUB5: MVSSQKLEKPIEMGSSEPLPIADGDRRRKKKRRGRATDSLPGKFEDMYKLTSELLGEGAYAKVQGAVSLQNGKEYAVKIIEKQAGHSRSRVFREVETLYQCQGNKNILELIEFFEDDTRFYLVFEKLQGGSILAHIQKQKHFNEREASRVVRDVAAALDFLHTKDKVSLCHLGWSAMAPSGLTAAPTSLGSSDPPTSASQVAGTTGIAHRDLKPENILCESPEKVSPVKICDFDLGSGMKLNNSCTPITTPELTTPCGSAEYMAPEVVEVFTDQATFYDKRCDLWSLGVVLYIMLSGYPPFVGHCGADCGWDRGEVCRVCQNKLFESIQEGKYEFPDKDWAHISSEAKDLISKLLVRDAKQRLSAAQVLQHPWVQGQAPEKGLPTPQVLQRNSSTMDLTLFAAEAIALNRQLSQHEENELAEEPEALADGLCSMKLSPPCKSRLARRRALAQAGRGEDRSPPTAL
# UniProt Q92630: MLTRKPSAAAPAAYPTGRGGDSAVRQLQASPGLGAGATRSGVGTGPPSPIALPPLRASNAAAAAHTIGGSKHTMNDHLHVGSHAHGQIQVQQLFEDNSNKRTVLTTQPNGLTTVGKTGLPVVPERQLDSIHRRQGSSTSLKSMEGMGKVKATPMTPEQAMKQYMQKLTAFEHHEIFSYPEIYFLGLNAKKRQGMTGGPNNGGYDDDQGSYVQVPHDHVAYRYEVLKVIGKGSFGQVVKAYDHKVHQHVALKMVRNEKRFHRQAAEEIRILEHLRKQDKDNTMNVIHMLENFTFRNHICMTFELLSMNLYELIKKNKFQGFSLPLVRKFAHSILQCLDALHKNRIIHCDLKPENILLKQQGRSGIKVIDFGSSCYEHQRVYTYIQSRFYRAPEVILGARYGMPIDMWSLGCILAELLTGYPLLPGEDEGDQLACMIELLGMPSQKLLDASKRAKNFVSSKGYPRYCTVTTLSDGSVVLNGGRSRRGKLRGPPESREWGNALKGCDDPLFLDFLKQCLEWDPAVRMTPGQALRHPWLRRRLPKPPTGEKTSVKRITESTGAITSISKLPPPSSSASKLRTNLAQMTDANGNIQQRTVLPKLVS
# UniProt Q96KB5: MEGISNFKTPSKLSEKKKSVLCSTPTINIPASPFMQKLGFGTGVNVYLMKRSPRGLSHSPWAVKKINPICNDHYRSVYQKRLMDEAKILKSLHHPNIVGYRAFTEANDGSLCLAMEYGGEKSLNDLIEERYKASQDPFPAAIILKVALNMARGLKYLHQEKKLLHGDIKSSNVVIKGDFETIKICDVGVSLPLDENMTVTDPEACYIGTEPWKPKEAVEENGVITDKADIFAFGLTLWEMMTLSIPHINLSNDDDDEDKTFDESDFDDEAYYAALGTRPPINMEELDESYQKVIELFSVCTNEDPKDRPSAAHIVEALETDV
# UniProt Q9UM73: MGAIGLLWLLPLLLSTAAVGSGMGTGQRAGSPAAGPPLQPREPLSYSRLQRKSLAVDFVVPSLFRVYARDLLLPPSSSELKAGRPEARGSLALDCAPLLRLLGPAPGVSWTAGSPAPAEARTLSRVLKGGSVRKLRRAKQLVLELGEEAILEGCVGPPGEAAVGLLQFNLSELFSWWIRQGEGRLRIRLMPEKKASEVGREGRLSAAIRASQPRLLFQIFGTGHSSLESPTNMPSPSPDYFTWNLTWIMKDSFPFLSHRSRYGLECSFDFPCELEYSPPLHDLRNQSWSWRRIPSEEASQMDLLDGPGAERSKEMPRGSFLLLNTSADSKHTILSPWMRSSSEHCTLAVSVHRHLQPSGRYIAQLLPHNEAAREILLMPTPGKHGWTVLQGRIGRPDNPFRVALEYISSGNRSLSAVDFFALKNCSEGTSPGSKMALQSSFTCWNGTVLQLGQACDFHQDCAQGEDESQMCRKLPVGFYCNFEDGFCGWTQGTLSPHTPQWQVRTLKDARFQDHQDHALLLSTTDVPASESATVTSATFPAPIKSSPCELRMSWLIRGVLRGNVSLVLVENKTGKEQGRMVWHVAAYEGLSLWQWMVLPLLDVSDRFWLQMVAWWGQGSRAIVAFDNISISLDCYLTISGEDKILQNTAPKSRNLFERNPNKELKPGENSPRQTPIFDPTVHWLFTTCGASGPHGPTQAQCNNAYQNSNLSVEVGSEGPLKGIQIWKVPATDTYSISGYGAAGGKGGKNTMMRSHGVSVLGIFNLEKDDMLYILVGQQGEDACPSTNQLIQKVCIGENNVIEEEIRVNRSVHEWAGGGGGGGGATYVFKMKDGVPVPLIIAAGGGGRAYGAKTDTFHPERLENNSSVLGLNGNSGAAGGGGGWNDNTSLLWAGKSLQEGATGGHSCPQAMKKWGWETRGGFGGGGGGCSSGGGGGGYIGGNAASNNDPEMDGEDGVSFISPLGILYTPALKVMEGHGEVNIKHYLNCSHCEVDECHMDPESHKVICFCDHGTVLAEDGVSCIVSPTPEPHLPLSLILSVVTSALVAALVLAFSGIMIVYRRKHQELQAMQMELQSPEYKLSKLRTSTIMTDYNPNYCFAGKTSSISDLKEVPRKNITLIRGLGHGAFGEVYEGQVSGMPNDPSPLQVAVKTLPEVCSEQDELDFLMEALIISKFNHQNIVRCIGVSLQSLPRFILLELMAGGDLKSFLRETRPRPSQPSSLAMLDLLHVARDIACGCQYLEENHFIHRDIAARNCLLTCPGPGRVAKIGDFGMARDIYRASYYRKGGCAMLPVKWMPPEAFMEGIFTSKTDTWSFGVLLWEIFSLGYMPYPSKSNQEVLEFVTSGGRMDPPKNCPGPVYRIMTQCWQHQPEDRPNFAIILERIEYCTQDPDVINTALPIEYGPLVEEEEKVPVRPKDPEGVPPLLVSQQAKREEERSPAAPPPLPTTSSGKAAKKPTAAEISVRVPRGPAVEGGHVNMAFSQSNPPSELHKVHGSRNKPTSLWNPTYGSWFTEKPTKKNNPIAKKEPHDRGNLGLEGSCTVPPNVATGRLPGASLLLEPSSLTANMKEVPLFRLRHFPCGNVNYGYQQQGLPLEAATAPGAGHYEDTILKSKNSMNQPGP
# UniProt Q16620, whole entry, looked up: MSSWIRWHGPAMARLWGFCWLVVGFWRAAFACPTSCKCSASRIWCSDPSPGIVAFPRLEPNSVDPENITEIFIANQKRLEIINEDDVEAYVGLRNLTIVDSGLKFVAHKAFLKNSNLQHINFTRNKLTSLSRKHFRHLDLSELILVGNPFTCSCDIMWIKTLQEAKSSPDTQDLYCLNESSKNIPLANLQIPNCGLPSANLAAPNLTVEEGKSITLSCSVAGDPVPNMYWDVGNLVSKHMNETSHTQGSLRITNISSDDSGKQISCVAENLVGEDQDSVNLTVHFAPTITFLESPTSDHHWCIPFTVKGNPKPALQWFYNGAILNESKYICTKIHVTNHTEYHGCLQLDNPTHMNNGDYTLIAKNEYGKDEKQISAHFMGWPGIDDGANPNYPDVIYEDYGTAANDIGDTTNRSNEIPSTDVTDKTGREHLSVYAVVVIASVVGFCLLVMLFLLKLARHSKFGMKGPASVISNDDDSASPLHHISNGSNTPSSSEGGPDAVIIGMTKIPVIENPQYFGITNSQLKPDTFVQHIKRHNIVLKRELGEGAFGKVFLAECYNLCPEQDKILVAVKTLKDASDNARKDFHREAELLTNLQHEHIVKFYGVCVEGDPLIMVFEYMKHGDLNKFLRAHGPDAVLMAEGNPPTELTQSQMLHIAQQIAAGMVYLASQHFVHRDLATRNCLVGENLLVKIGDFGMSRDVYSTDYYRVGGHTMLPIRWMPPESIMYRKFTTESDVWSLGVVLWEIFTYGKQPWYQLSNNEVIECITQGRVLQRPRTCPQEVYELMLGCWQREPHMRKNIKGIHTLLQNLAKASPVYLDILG
# UniProt P31749: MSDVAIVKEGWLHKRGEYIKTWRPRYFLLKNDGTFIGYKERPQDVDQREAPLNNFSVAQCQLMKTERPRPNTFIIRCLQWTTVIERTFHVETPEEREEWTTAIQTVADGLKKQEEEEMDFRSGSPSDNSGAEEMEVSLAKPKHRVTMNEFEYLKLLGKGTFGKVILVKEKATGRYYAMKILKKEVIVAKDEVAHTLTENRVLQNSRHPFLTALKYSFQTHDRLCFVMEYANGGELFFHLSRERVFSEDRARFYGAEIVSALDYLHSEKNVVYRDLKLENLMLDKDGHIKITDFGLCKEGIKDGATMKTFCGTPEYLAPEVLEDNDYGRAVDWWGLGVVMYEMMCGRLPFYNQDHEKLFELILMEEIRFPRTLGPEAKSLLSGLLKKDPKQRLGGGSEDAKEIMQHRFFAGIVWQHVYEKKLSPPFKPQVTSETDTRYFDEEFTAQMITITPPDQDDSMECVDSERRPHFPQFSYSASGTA
# UniProt P42356, whole entry, looked up: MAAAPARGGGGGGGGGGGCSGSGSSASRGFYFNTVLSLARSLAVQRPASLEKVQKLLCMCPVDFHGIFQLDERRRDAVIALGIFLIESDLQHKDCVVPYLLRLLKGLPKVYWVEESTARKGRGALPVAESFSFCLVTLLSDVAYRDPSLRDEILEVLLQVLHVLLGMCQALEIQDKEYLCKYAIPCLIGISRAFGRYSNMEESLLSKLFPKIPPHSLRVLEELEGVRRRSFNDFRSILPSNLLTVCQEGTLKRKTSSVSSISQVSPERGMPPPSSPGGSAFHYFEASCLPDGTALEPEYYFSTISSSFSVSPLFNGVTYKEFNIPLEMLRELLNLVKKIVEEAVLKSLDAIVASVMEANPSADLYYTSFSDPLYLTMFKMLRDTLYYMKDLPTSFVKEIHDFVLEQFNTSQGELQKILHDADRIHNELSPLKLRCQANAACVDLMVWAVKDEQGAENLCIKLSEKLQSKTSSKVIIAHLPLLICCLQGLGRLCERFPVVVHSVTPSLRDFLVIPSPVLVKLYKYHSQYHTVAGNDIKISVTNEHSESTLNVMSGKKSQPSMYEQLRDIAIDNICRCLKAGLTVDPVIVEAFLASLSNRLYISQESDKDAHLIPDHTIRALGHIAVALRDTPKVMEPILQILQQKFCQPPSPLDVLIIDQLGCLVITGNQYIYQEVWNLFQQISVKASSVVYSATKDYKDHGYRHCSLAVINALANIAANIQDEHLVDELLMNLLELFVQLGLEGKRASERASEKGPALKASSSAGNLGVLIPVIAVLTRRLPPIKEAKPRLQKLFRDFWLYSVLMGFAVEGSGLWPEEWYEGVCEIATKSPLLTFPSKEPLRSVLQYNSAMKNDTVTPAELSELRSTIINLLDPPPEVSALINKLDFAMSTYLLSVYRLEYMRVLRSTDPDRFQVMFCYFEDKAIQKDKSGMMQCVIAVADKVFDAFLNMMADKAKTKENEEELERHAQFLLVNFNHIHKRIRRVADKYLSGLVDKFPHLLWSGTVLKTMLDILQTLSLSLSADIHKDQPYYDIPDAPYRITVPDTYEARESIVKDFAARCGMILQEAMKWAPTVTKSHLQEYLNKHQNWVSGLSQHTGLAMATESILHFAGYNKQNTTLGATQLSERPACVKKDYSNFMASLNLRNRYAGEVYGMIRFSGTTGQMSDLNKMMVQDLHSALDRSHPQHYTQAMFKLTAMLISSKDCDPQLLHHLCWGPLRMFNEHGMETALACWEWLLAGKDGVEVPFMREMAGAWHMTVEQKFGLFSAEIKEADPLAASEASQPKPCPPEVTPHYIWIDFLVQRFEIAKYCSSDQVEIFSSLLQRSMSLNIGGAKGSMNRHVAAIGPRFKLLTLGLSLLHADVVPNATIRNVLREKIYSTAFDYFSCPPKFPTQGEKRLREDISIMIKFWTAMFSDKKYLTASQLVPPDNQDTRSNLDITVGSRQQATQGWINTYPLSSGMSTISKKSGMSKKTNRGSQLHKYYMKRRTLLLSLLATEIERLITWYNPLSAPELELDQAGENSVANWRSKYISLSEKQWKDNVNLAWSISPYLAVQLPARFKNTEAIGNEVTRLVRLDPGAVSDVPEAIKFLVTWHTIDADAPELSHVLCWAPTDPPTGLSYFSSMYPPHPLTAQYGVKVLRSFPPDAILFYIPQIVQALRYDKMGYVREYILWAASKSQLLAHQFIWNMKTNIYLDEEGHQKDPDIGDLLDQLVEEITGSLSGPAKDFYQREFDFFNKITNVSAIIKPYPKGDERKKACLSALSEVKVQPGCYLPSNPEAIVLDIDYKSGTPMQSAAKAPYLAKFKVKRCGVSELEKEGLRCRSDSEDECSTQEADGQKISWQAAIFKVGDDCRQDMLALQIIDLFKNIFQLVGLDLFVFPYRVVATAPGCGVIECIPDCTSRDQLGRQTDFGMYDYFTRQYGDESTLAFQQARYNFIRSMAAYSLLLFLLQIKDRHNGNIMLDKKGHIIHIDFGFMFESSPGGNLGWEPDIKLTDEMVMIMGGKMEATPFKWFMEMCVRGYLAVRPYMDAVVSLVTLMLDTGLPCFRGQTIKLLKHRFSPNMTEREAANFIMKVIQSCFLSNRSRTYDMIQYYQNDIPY
# Key:
# Experiment in all cases: number of time points (of 5) at which kinase-Nluc abundance scored as decreased, DMSO-normalised (count); higher = more persistent destabilization
# Trametinib = compound: CC(=O)Nc1cccc(-n2c(=O)n(C3CC3)c(=O)c3c(Nc4ccc(I)cc4F)n(C)c(=O)c(C)c32)c1 [Trametinib]; settings: 10 µM; K562; 2-18 h
# [1] = compound: CC(=O)c1c(C)c2cnc(Nc3ccc(N4CCNCC4)cn3)nc2n(C2CCCC2)c1=O [Palbociclib (isethionate)]; settings: 10 µM; K562; 2-18 h
# [2] = compound: CC(=O)c1c(C)c2cnc(Nc3ccc(N4CCNCC4)cn3)nc2n(C2CCCC2)c1=O [Palbociclib (monohydrochloride)]; settings: 10 µM; K562; 2-18 h
# [3] = compound: CC(C)(C)n1nc(-c2cccc3ccccc23)c2c(N)ncnc21 [1-Naphthyl PP1 (hydrochloride)]; settings: 10 µM; K562; 2-18 h
# 1-Naphthyl PP1 = compound: CC(C)(C)n1nc(-c2cccc3ccccc23)c2c(N)ncnc21 [1-Naphthyl PP1]; settings: 10 µM; K562; 2-18 h
# [4] = compound: CC(C)NC[C@@H](C(=O)N1CCN(c2ncnc3c2[C@H](C)C[C@H]3O)CC1)c1ccc(Cl)cc1 [Ipatasertib (dihydrochloride)]; settings: 10 µM; K562; 2-18 h
# Ipatasertib = compound: CC(C)NC[C@@H](C(=O)N1CCN(c2ncnc3c2[C@H](C)C[C@H]3O)CC1)c1ccc(Cl)cc1 [Ipatasertib]; settings: 10 µM; K562; 2-18 h
# [5] = compound: CC(C)Nc1cc(-c2c[nH]c(C(=O)N[C@H](CO)c3cccc(Cl)c3)c2)c(Cl)cn1 [Ulixertinib (hydrochloride)]; settings: 10 µM; K562; 2-18 h
# Ulixertinib = compound: CC(C)Nc1cc(-c2c[nH]c(C(=O)N[C@H](CO)c3cccc(Cl)c3)c2)c(Cl)cn1 [Ulixertinib]; settings: 10 µM; K562; 2-18 h
# [6] = compound: CC(C)Oc1ccc(-c2nn([C@@H](C)c3oc4ccc(F)cc4c(=O)c3-c3cccc(F)c3)c3ncnc(N)c23)cc1F [Umbralisib (hydrochloride)]; settings: 2.5 µM; K562; 2-18 h
# Umbralisib = compound: CC(C)Oc1ccc(-c2nn([C@@H](C)c3oc4ccc(F)cc4c(=O)c3-c3cccc(F)c3)c3ncnc(N)c23)cc1F [Umbralisib]; settings: 2.5 µM; K562; 2-18 h
# Bucladesine (calcium) = compound: CCCC(=O)Nc1ncnc2c1ncn2[C@@H]1O[C@@H]2COP(=O)(O)O[C@H]2[C@H]1OC(=O)CCC [Bucladesine (calcium)]; settings: 10 µM; K562; 2-18 h
# Bucladesine (sodium) = compound: CCCC(=O)Nc1ncnc2c1ncn2[C@@H]1O[C@@H]2COP(=O)(O)O[C@H]2[C@H]1OC(=O)CCC [Bucladesine (sodium)]; settings: 10 µM; K562; 2-18 h
# [7] = compound: CCCCCCCCc1ccc(CCC(N)(CO)CO)cc1 [Fingolimod (hydrochloride)]; settings: 2.5 µM; K562; 2-18 h
# Fingolimod = compound: CCCCCCCCc1ccc(CCC(N)(CO)CO)cc1 [Fingolimod]; settings: 2.5 µM; K562; 2-18 h
# [8] = compound: CCN(CC)CC(=O)Nc1c(C)cccc1C [Lidocaine (hydrochloride)]; settings: 10 µM; K562; 2-18 h
# Lidocaine = compound: CCN(CC)CC(=O)Nc1c(C)cccc1C [Lidocaine]; settings: 10 µM; K562; 2-18 h
# [9] = compound: CCN(CC)Cc1ccc(OC)c(-c2cc3c(-c4ccc(C(=O)O)c(C(C)C)c4)ccnc3[nH]2)c1; settings: K562, 2-18 h
# Baricitinib (phosphate) = compound: CCS(=O)(=O)N1CC(CC#N)(n2cc(-c3ncnc4[nH]ccc34)cn2)C1 [Baricitinib (phosphate)]; settings: 10 µM; K562; 2-18 h
# Baricitinib = compound: CCS(=O)(=O)N1CC(CC#N)(n2cc(-c3ncnc4[nH]ccc34)cn2)C1 [Baricitinib]; settings: 10 µM; K562; 2-18 h
target,measurement,setting,value
MKNK1 (UniProt Q9BUB5),number of time points,Trametinib,0
same,number of time points,[1],0
same,number of time points,[2],0
same,number of time points,[3],0
same,number of time points,1-Naphthyl PP1,0
same,number of time points,[4],0
same,number of time points,Ipatasertib,0
same,number of time points,[5],0
same,number of time points,Ulixertinib,0
same,number of time points,[6],0
same,number of time points,Umbralisib,0
same,number of time points,Bucladesine (calcium),0
same,number of time points,Bucladesine (sodium),0
same,number of time points,[7],0
same,number of time points,Fingolimod,0
same,number of time points,[8],0
same,number of time points,Lidocaine,0
same,number of time points,[9]; 2.5 µM,0
same,number of time points,[9]; 10 µM,0
same,number of time points,Baricitinib (phosphate),0
same,number of time points,Baricitinib,0
DYRK2 (UniProt Q92630),number of time points,Trametinib,1
same,number of time points,[1],4
same,number of time points,[2],0
same,number of time points,[3],0
same,number of time points,1-Naphthyl PP1,0
same,number of time points,[4],0
same,number of time points,Ipatasertib,0
same,number of time points,[5],0
same,number of time points,Ulixertinib,0
same,number of time points,[6],0
same,number of time points,Umbralisib,0
same,number of time points,Bucladesine (calcium),0
same,number of time points,Bucladesine (sodium),0
same,number of time points,[7],1
same,number of time points,Fingolimod,0
same,number of time points,[8],0
same,number of time points,Lidocaine,0
same,number of time points,[9]; 2.5 µM,2
same,number of time points,[9]; 10 µM,1
same,number of time points,Baricitinib (phosphate),0
same,number of time points,Baricitinib,0
PBK (UniProt Q96KB5),number of time points,Trametinib,0
same,number of time points,[1],0
same,number of time points,[2],0
same,number of time points,[3],0
same,number of time points,1-Naphthyl PP1,0
same,number of time points,[4],0
same,number of time points,Ipatasertib,0
same,number of time points,[5],0
same,number of time points,Ulixertinib,0
same,number of time points,[6],0
same,number of time points,Umbralisib,0
same,number of time points,Bucladesine (calcium),0
same,number of time points,Bucladesine (sodium),0
same,number of time points,[7],0
same,number of time points,Fingolimod,0
same,number of time points,[8],0
same,number of time points,Lidocaine,0
same,number of time points,[9]; 2.5 µM,0
same,number of time points,[9]; 10 µM,0
same,number of time points,Baricitinib (phosphate),0
same,number of time points,Baricitinib,0
ALK (UniProt Q9UM73),number of time points,Trametinib,0
same,number of time points,[1],0
same,number of time points,[2],0
same,number of time points,[3],0
same,number of time points,1-Naphthyl PP1,0
same,number of time points,[4],0
same,number of time points,Ipatasertib,0
same,number of time points,[5],0
same,number of time points,Ulixertinib,0
same,number of time points,[6],0
same,number of time points,Umbralisib,0
same,number of time points,Bucladesine (calcium),0
same,number of time points,Bucladesine (sodium),0
same,number of time points,[7],0
same,number of time points,Fingolimod,0
same,number of time points,[8],0
same,number of time points,Lidocaine,0
same,number of time points,[9]; 2.5 µM,0
same,number of time points,[9]; 10 µM,0
same,number of time points,Baricitinib (phosphate),0
same,number of time points,Baricitinib,0
NTRK2 (UniProt Q16620),number of time points,Trametinib,0
same,number of time points,[1],0
same,number of time points,[2],0
same,number of time points,[3],0
same,number of time points,1-Naphthyl PP1,0
same,number of time points,[5],0
same,number of time points,Ulixertinib,0
same,number of time points,[6],0
same,number of time points,Umbralisib,0
same,number of time points,Bucladesine (calcium),0
same,number of time points,Bucladesine (sodium),0
same,number of time points,Fingolimod,0
same,number of time points,[8],0
same,number of time points,Lidocaine,0
same,number of time points,[9]; 2.5 µM,0
same,number of time points,[9]; 10 µM,0
same,number of time points,Baricitinib (phosphate),0
same,number of time points,Baricitinib,0
AKT1 (UniProt P31749),number of time points,Trametinib,0
same,number of time points,[1],0
same,number of time points,[2],0
same,number of time points,[3],0
same,number of time points,1-Naphthyl PP1,0
same,number of time points,[4],0
same,number of time points,Ipatasertib,0
same,number of time points,[5],0
same,number of time points,Ulixertinib,0
same,number of time points,[6],0
same,number of time points,Umbralisib,0
same,number of time points,Bucladesine (calcium),0
same,number of time points,Bucladesine (sodium),0
same,number of time points,[7],0
same,number of time points,Fingolimod,1
same,number of time points,[8],0
same,number of time points,Lidocaine,0
same,number of time points,[9]; 2.5 µM,0
same,number of time points,[9]; 10 µM,0
same,number of time points,Baricitinib (phosphate),0
same,number of time points,Baricitinib,0
PIK4CA (UniProt P42356),number of time points,Trametinib,0
same,number of time points,[1],2
same,number of time points,[2],0
same,number of time points,[3],0
same,number of time points,1-Naphthyl PP1,0
same,number of time points,[4],0
same,number of time points,Ipatasertib,0
same,number of time points,[5],0
same,number of time points,Ulixertinib,0
same,number of time points,[6],0
same,number of time points,Umbralisib,0
same,number of time points,Bucladesine (calcium),0
same,number of time points,Bucladesine (sodium),0
same,number of time points,[7],0
same,number of time points,Fingolimod,0
same,number of time points,[8],0
same,number of time points,Lidocaine,0
same,number of time points,[9]; 2.5 µM,0
same,number of time points,[9]; 10 µM,0
same,number of time points,Baricitinib (phosphate),0
same,number of time points,Baricitinib,0
CAMK2G (UniProt Q13555),number of time points,Trametinib,1
same,number of time points,[1],0
same,number of time points,[2],0
same,number of time points,[3],0
same,number of time points,1-Naphthyl PP1,0
same,number of time points,[4],0
same,number of time points,Ipatasertib,0
same,number of time points,[5],0
same,number of time points,Ulixertinib,0
same,number of time points,[6],0
same,number of time points,Umbralisib,0
same,number of time points,Bucladesine (calcium),0
same,number of time points,Bucladesine (sodium),0
same,number of time points,[7],0
same,number of time points,Fingolimod,0
same,number of time points,[8],0
same,number of time points,Lidocaine,0
same,number of time points,[9]; 2.5 µM,0
same,number of time points,[9]; 10 µM,0
same,number of time points,Baricitinib (phosphate),0
same,number of time points,Baricitinib,0
RET (UniProt P07949),number of time points,Trametinib,0
same,number of time points,[1],0
same,number of time points,[2],0
same,number of time points,[3],0
same,number of time points,1-Naphthyl PP1,0
same,number of time points,[4],0
same,number of time points,Ipatasertib,0
same,number of time points,[5],0
same,number of time points,Ulixertinib,0
same,number of time points,[6],0
same,number of time points,Umbralisib,0
same,number of time points,Bucladesine (calcium),0
same,number of time points,Bucladesine (sodium),0
same,number of time points,[7],0
same,number of time points,Fingolimod,0
same,number of time points,[8],0
same,number of time points,Lidocaine,0
same,number of time points,[9]; 2.5 µM,0
same,number of time points,[9]; 10 µM,0
same,number of time points,Baricitinib (phosphate),0
same,number of time points,Baricitinib,0

# Seven entries picked at random from the list so far, as already listed:
target,measurement,setting,value
PIK4CA (UniProt P42356),number of time points,[9]; 2.5 µM,0
MKNK1 (UniProt Q9BUB5),number of time points,[8],0
ALK (UniProt Q9UM73),number of time points,[6],0
RET (UniProt P07949),number of time points,Trametinib,0
same,number of time points,Umbralisib,0
same,number of time points,[8],0
same,number of time points,[2],0

# — the supplement of paper PMC12823440, “Inhibitors supercharge kinase turnover through native proteolytic circuits” (Nature, 2025)
